The filed quantity is “Percent Effect” (%). The controls that fix the scale are not given in the record; negative values are as filed. This is an unselected part of the compounds tested.

Amino acid sequences for entries named in this document (tags omitted). Residues count along the entry.
UniProt A4I591, 1-473: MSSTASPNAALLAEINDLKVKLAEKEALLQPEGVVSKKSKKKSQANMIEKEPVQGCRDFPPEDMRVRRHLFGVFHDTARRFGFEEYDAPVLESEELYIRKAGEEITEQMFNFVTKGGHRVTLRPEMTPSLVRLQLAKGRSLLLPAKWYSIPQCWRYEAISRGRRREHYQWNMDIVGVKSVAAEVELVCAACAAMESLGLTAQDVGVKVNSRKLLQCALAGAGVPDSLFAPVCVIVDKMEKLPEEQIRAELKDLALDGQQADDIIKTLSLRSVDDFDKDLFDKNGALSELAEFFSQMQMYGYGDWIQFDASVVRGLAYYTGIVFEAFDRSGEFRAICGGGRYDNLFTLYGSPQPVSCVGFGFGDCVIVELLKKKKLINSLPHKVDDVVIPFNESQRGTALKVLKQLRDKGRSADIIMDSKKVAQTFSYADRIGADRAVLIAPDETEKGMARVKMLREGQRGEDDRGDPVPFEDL
UniProt P9WFT3, whole entry: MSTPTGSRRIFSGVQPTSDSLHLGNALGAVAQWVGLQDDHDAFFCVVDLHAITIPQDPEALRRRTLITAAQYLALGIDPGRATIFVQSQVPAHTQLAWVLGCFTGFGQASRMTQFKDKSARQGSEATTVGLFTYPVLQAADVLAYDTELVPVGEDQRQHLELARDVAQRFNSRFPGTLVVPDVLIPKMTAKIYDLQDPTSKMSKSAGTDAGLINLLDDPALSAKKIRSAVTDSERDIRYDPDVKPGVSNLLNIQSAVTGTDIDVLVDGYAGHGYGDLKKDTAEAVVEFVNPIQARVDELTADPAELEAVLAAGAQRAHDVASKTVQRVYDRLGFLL
UniProt P9WNZ1, whole entry: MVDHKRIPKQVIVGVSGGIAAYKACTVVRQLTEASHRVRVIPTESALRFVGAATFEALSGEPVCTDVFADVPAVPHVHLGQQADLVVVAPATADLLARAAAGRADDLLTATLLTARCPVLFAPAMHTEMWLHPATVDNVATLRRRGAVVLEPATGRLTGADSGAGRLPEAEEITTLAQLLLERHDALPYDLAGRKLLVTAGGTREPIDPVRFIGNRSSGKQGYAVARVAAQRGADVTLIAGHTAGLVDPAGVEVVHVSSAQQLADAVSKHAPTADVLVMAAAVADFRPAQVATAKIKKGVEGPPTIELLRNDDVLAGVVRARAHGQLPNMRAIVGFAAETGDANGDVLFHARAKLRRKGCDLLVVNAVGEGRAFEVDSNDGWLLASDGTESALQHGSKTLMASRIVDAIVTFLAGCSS

A: 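Histidine-tRNA ligase, Leishmania infantum (UniProt A4I591). Enzyme assay of histidyl-tRNA synthetase; the read-out is not stated. Concentration: 30 µM. Higher reads as stronger inhibition (inferred: compounds with an IC50 in retests scored well above the rest). The assay is labelled LdHisRS but filed under L. infantum. About 69,000 compounds were tested under these conditions; 0.6% (about 410) showed 50% or more at least once.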
B: 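Enzyme assay of tryptophanyl-tRNA synthetase; the read-out is not stated. Target: Tryptophan-tRNA ligase, Mycobacterium tuberculosis (UniProt P9WFT3). Tested at 10 µM. Direction is not recorded; retested compounds ran higher, which suggests that high means inhibition. About 65,000 compounds were tested under these conditions; 0.098% (about 64) showed 50% or more at least once.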
C: 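Assay of Toxoplasma gondii numbers, read through their beta-galactosidase reporter with a colour substrate. Tested at 10 µM. The record gives no direction; the compounds picked for IC50 retests had high values, so higher reads as fewer parasites. Of about 67,000 compounds tested this way, about 260 (0.38%) reached 50% or more in at least one test.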
D: 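Coenzyme A biosynthesis protein CoaBC, Mycobacterium tuberculosis (UniProt P9WNZ1). Enzyme assay of CoaBC with a phosphate dye (Biomol Green) read at 650 nm. Tested at 30 µM. Higher reads as stronger inhibition, judged from the few compounds that gave an IC50. Most strong results did not repeat in a second test. Size under these conditions: about 67,000 compounds, about 40 of them at 50% or above in at least one test.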

- CC1(C)CCN(S(=O)(=O)N2CCCC(c3cccc(C(=O)O)c3)C2)CC1 (configuration not stated) | A: 11.48%; B: 1.143%; C: 10.84%; D: 9.013%
- Cc1ccc2c(c1)C(NC(=O)N(C)C)CC21CCN(C(C)C)CC1.O=C(O)C(F)(F)F (configuration not stated) | C: 23.89%
- COC(=O)c1ccc(C2CC(=O)Nc3c2cnn3C)cc1 (configuration not stated) | A: -5.128%; B: -3.725%; C: 15.79%; D: 2.29%
- COc1c(NC(=O)C(C)CCOc2ccccc2)c(C)nn1C (configuration not stated) | A: 25.86%; B: -1.72%; C: 7.692%; D: -4.069%
- O=C(CN1CC(c2nc(-c3cccs3)no2)C1)NCC1CCCO1.O=C(O)C(=O)O (configuration not stated) | C: 24.32%
- Cc1cccc2nc(CN3CCCC3Cn3cncn3)cn12 (configuration not stated) | A: 17.24%; B: -6.377%; C: -3.271%; D: 1.044%
- CCCc1nc(Nc2cccc(C(N)=O)c2)c2c(n1)c(C)nn2CC | A: 5.172%; B: 1.554%; C: 20.54%; D: -4.157%
- COc1cc(C2SCC(=O)Nc3[nH]ncc32)cc2c1OCO2 (configuration not stated) | A: 4.301%; B: -2.083%; C: 3.29%; D: 8.642%
- CCO[C@H]1CN(C(=O)c2ccnnc2)[C@@H]2COC[C@H]12 | A: 7.273%; B: -1.918%; D: -7.563%
- O=C(Cc1csc(N2CCNC2=O)n1)NCC1(c2ccccc2)CC1 | A: 13.13%; B: 9.273%; C: -2.582%; D: 5.314%
- CNc1cc2c(nn1)CCN(C(=O)c1cc(C)n(C3CC3)c1C)C2 | A: 9.565%; B: 26.96%; C: 0.6024%; D: 3.181%
- CN1CCC2(CC1)CN(C)C(=O)C[C@@H]2C(F)(F)F | A: 15.38%; B: 1.066%; C: 6.543%
- O=C(C1CNCCN1C(=O)CCc1cccnc1)N1CCOCC1 (configuration not stated) | A: 8.392%; B: -0.7831%; C: 14.81%; D: 4.198%
- CCCNC(=O)c1cc2c(nc1O)CCC(C)C2 (configuration not stated) | A: 9.709%; B: 12.46%; C: 3.706%; D: -0.4038%
- COC(=O)N1CCCN(C(=O)c2cccc3cccnc23)CC1 | A: 8.264%; B: -1.221%; C: 6.601%; D: 5.832%
- O=C(c1ccc[nH]1)N1CCCn2c(nnc2Cn2cccn2)C1 | A: 11.54%; C: 5.547%; D: 5.697%
- CCn1cc(CN2CCCN(C(=O)c3sc(C)nc3C)CC2)cn1 | A: 16.95%; B: -0.2292%; C: -4.127%; D: 0.2625%
- Cn1cnnc1C1CCCN(C(=O)NCCc2ccccn2)C1 (configuration not stated) | A: 13.21%; B: -1.154%; C: 7.295%; D: 5.684%
- COc1ccccc1C1(CNc2snc(Cl)c2C#N)CCCC1 | A: 13.16%; B: -2.386%; C: 2.513%; D: 2.554%
- COCC1CC2(CCN(S(=O)(=O)C3CC3)CC2)CN1c1ncccn1 (configuration not stated) | A: -2.857%; B: 1.465%; D: -2.28%
- O=C1CCC(C(=O)Nc2cnn(-c3ccccc3Br)c2)N1 (configuration not stated) | A: 4.878%; B: 1.633%; C: 14.36%; D: 1.654%
- COCC1CN(C(=O)Cc2cccs2)Cc2nnn(CC3CC3)c21 (configuration not stated) | A: -2.564%; B: 0.1383%; C: 9.3%; D: 1.504%
- COc1ccc(Cl)cc1CN(C)CC(=O)/N=c1\cc[nH]n1C(C)C1CC1 (configuration not stated) | A: 15.56%; B: -3.704%; C: 2.382%; D: 2.451%
- CCn1ncc(C(=O)N2CCN(CC3CCCO3)CC2)c1C (configuration not stated) | A: 14.52%; B: 2.388%; C: -4.08%; D: 1.814%
- COCC(O)CN1CCC(=O)N(CC(=O)C(C)(C)C)Cc2ccccc21 (configuration not stated) | A: 14.29%; C: -33.88%; D: 0.9685%
- NC(=O)CC1CCCN(c2cncc(OCc3ccccc3)n2)C1 (configuration not stated) | A: 1.176%; B: -0.757%; C: 22.58%; D: -3.236%

The values are deposited in ChEMBL (CHEMBL3988442, “University of Dundee, Small-Polar-MMV Screening Library” (2021)).